## Cell number after 72 h of treatment

Source: doi:10.1371/journal.pone.0140310, primary screening data, rounded.

Drugs:
RKI-983, 0.4 µM: C[C@@H](N)c1ccc(C(=O)Nc2ccnc3[nH]ccc23)cc1
BI-78D3, 0.2 µM: O=c1[nH]nc(Sc2ncc([N+](=O)[O-])s2)n1-c1ccc2c(c1)OCCO2
fingolimod, 2 µM: CCCCCCCCc1ccc(CCC(N)(CO)CO)cc1
bexarotene, 2 µM: C=C(c1ccc(C(=O)O)cc1)c1cc2c(cc1C)C(C)(C)CCC2(C)C
ruxolitinib, 1 µM: N#CC[C@H](C1CCCC1)n1cc(-c2ncnc3[nH]ccc23)cn1
veliparib, 1.4 µM: C[C@]1(c2nc3c(C(N)=O)cccc3[nH]2)CCCN1
etoposide, 0.02 µM: COc1cc([C@@H]2c3cc4c(cc3[C@@H](O[C@@H]3O[C@@H]5CO[C@@H](C)O[C@H]5[C@H](O)[C@H]3O)[C@H]3COC(=O)[C@H]23)OCO4)cc(OC)c1O
indole-3-carbinol, 0.8 µM: OCc1c[nH]c2ccccc12
crizotinib, 0.2 µM: C[C@@H](Oc1cc(-c2cnn(C3CCNCC3)c2)cnc1N)c1c(Cl)ccc(F)c1Cl
lestaurtinib, 0.004 µM: C[C@]12O[C@H](C[C@]1(O)CO)n1c3ccccc3c3c4c(c5c6ccccc6n2c5c31)CNC4=O

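The test systems are human melanoma cell lines, treated with a pair of drugs for 72 h and then stained and imaged. Values are the number of DAPI-stained nuclei as a percentage of the DMSO control: 100 is no effect, lower means fewer cells. Every drug was used at one fixed concentration, the lower of two screened (a fifth of the higher). No replicate spread is given; individual values may be noisy.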
An unselected part of the screen is shown.
An entry leaves out what has no value listed here.
A dash means that no value is listed here.

Drugs	A101D	MEL-HO	G-361	COLO 792	COLO 800	A375	COLO 829	LB2518-MEL	A2058	IPC-298	C32	LOX IMVI	IST-MEL1
lestaurtinib + crizotinib	97.0	89.2	91.0	101	150	106	104	-	90.6	96.0	100	107	104
ruxolitinib + bexarotene	115	86.2	82.1	105	153	113	116	115	103	93.3	115	99.0	93.5
ruxolitinib + crizotinib	125	116	99.3	128	119	120	164	104	97.9	92.3	116	167	109
fingolimod + BI-78D3	104	97.4	93.4	82.6	129	79.4	88.2	106	96.3	96.8	104	99.3	94.5
etoposide + bexarotene	111	94.5	81.1	114	113	104	105	103	101	93.3	100	108	87.9
ruxolitinib + BI-78D3	117	99.9	102	108	118	117	86.4	134	99.2	107	95.9	94.0	95.6
etoposide + fingolimod	93.2	90.5	88.0	97.3	74.0	56.0	69.9	100	79.3	87.9	97.2	51.0	96.4
RKI-983 + BI-78D3	120	86.5	107	91.7	118	96.1	95.9	116	84.5	93.9	77.1	64.7	93.6
bexarotene + fingolimod	99.9	90.2	84.0	101	152	66.2	89.2	109	92.2	93.4	103	92.5	96.1
crizotinib + BI-78D3	98.1	108	93.9	103	94.4	107	92.5	105	101	96.9	93.9	158	94.9
veliparib + RKI-983	93.3	88.1	104	90.3	124	68.3	102	118	83.5	98.5	68.0	73.4	98.4
etoposide + indole-3-carbinol	100	93.9	94.0	92.1	98.8	94.2	136	91.1	107	92.9	94.6	149	91.8
RKI-983 + ruxolitinib	112	90.3	95.1	108	127	90.3	128	155	88.6	104	101	112	96.5
crizotinib + bexarotene	101	98.8	76.2	101	55.4	118	73.8	112	98.5	87.0	105	109	93.7
BI-78D3 + indole-3-carbinol	86.9	94.4	86.9	91.6	106	94.5	89.7	-	86.1	102	97.8	86.2	100
indole-3-carbinol + RKI-983	83.7	73.2	94.1	86.2	124	99.5	94.0	80.5	82.1	94.1	77.9	74.6	98.3
BI-78D3 + lestaurtinib	103	92.8	112	97.3	91.1	79.0	108	-	97.2	102	105	80.3	101
lestaurtinib + RKI-983	92.8	84.3	108	87.0	112	99.1	63.4	123	90.7	95.6	83.0	63.3	95.7
crizotinib + etoposide	96.8	105	86.2	94.2	131	84.1	115	101	80.9	88.0	114	98.7	95.0
veliparib + ruxolitinib	103	98.5	102	111	95.1	87.8	94.6	117	72.3	95.4	111	124	103
fingolimod + ruxolitinib	126	96.6	102	109	104	83.8	100	120	79.0	93.2	105	96.8	94.4
fingolimod + veliparib	87.1	84.5	104	86.3	93.7	45.5	69.5	86.5	88.3	101	85.9	92.2	92.2
ruxolitinib + etoposide	118	104	95.5	103	166	117	137	137	96.2	95.5	-	114	94.8
indole-3-carbinol + ruxolitinib	109	85.5	64.7	102	147	-	104	101	83.4	86.9	117	225	107
crizotinib + fingolimod	82.8	106	85.8	106	92.0	78.6	102	83.1	89.8	101	102	110	113
etoposide + lestaurtinib	101	110	106	109	96.3	104	110	96.9	93.2	93.9	87.7	115	108

The last 2 entries again:

- crizotinib + fingolimod : A101D: 82.8; MEL-HO: 106; G-361: 85.8; COLO 792: 106; COLO 800: 92.0; A375: 78.6; COLO 829: 102; LB2518-MEL: 83.1; A2058: 89.8; IPC-298: 101; C32: 102; LOX IMVI: 110; IST-MEL1: 113
- etoposide + lestaurtinib : A101D: 101; MEL-HO: 110; G-361: 106; COLO 792: 109; COLO 800: 96.3; A375: 104; COLO 829: 110; LB2518-MEL: 96.9; A2058: 93.2; IPC-298: 93.9; C32: 87.7; LOX IMVI: 115; IST-MEL1: 108